Construct, isoform or probe ends are uncertain for at least one entry. A negative result means that nothing was seen under these conditions. Protein sequences can lack the tags named with them.
Experiments:
[1] = molecular target: T1, ATHB17Δ113 M227I (Arabidopsis thaliana) (UniProt Q8S9N6); assay: BLI; settings: BLI (Octet QK): PBS (10 mM Na2HPO4, 1 mM KH2PO4, 137 mM NaCl, 2.7 mM KCl) pH 7.4, 0.005% Tween-20, 30 C, 30 nM protein; recombinant protein; residues 114-275; protein details: tag-free; label: biotin
T1 sequence (looked up): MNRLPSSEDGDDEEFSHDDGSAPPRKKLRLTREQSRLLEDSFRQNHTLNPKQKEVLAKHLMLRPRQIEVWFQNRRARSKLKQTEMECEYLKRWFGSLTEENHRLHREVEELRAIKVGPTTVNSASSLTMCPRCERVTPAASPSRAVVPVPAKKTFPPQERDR

[2] = molecular target: T1, ATHB17Δ113 M227I (Arabidopsis thaliana); assay: SPR; settings: SPR (Biacore 2000): 10 mM HEPES pH 7.4, 150 mM NaCl, 3 mM EDTA, 0.005% Tween-20, 100 ug/ml BSA, 25 C, 3.7-300 nM protein; recombinant protein; residues 114-275; protein details: tag-free; label: biotin

Work on “CACGCAATCATTGCGGC (double strand) [Flank variant CACG-CAATCATTG-CGGC]” yielded a Kd [1] of 22.2 nM.

Sequence “CACGCAATCATTGGCGC (double strand) [Flank variant CACG-CAATCATTG-GCGC]” has a Kd [1] of 39.8 nM.

In the case of “CAGAAAATCATTTCGGC (double strand) [Substitution AAATCATTT]”, the Kd [1] is reported as 70.3 nM.

“CAGACAAACTTTGCGGC (double strand) [Substitution CAAACTTTG]”: no binding [1].

“CAGACAACCGTTGCGGC (double strand) [Substitution CAACCGTTG]”: no binding [1].

“CAGACAAGCCTTGCGGC (double strand) [Substitution CAAGCCTTG]”: no binding [1].

“CAGACAATATATTGCGGC (double strand) [Insertion CAATATATTG]”: no binding [1].

With “CAGACAATCATTGAGGC (double strand) [Flank variant CAGA-CAATCATTG-AGGC]” the Kd [1] was 27.6 nM.

Sequence “CAGACAATCATTGCGGC (double strand) [Class II]” has a Kd [1] of 27.7 nM.

“CAGACAATCGATTGCGGC (double strand) [Insertion CAATCGATTG]”: no binding [1].

“CAGACAATGCATTGCGGC (double strand) [Insertion CAATGCATTG]”: no binding [1].

“CAGACAATGCCGACCGGC (double strand) [Insertion CAATGCCGACCGGC]”: no binding [1].

“CAGACAATGCGATTGCGGC (double strand) [Insertion CAATGCGATTG]”: no binding [1].

“CAGACAATTAATTGCGGC (double strand) [Insertion CAATTAATTG]”: no binding [1].

“CAGACAATTACGACCGGC (double strand) [Insertion CAATTACGACCGGC]”: no binding [1].

“CAGACAATTATTGCGGC (double strand) [Class I]” gave a Kd [1] of 40.6 nM.

“CAGACACTCAGTGCGGC (double strand) [Substitution CACTCAGTG]”: no binding [1].

“CAGACAGTCACTGCGGC (double strand) [Substitution CAGTCACTG]”: no binding [1].

“CAGACATTCAATGCGGC (double strand) [Substitution CATTCAATG]”: no binding [1].

“CAGACCATCATGGCGGC (double strand) [Substitution CCATCATGG]”: no binding [1].

“CAGACGATCATCGCGGC (double strand) [Substitution CGATCATCG]”: no binding [1].

“CAGACTATCATAGCGGC (double strand) [Substitution CTATCATAG]”: no binding [1].

“CAGAGAATCATTCCGGC (double strand) [Substitution GAATCATTC]”: no binding [1].

With “CAGATAATCATTACGGC (double strand) [Substitution TAATCATTA]” the Kd [1] was 108 nM.

For “CAGATAATTATTACGGC (double strand) [Substitution TAATTATTA]”, the Kd [1] was 90.2 nM.

“CAGCTCAGTCTGACGGC (double strand) [Non-consensus]”: no binding [2]; no binding [1].

For “CAGTCAATCATTGTGGC (double strand) [Flank variant CAGT-CAATCATTG-TGGC]”, the Kd [1] was 28.1 nM.
